Laboratory results taken from PMC4201560.
Results are given in words; binding and its absence hold for the method and conditions named. Binding seen in cells or lysates may run through a third protein. Some results given as binding are weak or reduced against the parent protein; the word gives no strength. Tags and fused reporters may be left off the sequences shown.

Sequences of proteins named here, by UniProt entry; tags and fusion partners are left off.
UniProt O14063: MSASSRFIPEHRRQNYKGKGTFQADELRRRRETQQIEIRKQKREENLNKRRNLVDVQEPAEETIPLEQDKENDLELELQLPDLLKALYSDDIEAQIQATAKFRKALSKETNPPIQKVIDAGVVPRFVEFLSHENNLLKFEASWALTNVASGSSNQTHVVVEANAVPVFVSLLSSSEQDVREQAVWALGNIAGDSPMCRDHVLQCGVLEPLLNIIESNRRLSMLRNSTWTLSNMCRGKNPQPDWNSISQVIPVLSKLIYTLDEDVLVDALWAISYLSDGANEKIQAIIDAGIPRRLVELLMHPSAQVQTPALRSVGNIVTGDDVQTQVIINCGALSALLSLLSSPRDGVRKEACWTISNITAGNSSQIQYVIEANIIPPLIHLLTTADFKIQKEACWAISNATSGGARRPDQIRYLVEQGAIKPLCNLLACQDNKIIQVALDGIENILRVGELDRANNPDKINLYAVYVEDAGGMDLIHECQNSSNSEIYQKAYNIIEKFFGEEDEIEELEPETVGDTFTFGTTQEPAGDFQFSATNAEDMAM

Assays:
Experiment in all cases: pull-down; TAP pull-down: total lysates of iron-starved (Dip 250 µM, 3 h) S. pombe php4Δ cells co-expressing GFP-Php4 and a TAP-tagged karyopherin or TAP alone; IgG-Sepharose 6 Fast-Flow beads, 30 to 60 min at 4°C, washed with lysis buffer; bound fraction blotted with anti-GFP, anti-IgG and anti-α-tubulin
Imp1-TAP (S. pombe) = target: T1, Imp1-TAP (S. pombe) (UniProt O94374)
T1 sequence: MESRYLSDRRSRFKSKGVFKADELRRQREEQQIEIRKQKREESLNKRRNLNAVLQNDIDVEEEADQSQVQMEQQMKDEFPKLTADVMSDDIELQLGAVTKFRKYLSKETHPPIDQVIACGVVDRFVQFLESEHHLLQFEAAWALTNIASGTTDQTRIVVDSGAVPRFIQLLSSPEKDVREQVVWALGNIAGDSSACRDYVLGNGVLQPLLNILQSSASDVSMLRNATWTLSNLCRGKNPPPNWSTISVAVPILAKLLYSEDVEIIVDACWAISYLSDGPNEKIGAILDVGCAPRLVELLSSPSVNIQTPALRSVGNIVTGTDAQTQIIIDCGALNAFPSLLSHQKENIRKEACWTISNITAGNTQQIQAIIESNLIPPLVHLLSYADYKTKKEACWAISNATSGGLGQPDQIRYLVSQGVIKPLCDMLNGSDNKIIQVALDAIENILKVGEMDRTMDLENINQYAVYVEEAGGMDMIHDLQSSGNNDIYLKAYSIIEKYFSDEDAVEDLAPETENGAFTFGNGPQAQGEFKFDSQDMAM

Sal3-TAP (S. pombe) = target: T2, Sal3-TAP (S. pombe) (UniProt O74476)
T2 sequence: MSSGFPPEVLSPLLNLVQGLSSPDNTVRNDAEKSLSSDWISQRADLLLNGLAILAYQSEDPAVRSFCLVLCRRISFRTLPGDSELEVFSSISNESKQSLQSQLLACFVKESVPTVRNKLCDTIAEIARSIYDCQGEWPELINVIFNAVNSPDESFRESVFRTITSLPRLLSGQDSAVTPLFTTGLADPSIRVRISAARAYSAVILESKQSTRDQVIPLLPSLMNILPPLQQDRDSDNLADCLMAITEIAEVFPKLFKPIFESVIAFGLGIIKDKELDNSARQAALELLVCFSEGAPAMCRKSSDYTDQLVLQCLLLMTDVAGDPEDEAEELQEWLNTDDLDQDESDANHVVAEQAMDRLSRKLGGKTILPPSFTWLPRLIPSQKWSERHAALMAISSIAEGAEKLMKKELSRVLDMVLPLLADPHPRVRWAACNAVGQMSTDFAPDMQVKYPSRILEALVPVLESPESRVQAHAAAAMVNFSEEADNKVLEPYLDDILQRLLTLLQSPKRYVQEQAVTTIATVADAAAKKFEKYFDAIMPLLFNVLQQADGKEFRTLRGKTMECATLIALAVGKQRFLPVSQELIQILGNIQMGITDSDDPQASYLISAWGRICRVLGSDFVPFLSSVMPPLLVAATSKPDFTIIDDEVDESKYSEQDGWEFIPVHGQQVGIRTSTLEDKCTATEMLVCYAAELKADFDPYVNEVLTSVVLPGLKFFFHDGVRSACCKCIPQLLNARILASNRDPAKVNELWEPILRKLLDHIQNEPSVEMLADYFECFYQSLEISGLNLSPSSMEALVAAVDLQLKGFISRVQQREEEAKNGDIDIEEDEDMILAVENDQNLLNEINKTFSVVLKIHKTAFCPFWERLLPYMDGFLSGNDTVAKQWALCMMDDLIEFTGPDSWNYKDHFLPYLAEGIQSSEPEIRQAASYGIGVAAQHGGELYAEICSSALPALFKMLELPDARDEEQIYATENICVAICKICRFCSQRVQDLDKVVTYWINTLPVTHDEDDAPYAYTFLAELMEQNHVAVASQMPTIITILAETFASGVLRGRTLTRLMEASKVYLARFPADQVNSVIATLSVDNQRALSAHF

Cut15-TAP (S. pombe) = Cut15-TAP (S. pombe) (UniProt O14063)

Measured: binding

B1: GFP-Php4 (protein, UniProt O14318 1-295)
chain: MESSKSPSEVEKSSSASPAPQKPMIRVSKQWVVPPRPKPGRKPALDALGRRKAPIKPRPGPTSALSVEEAKFRVREKQYQDTIGKLQKENNELLEQLEMLQAQLKNSTLDSPKEVEVNSEVVKPDSATTENENRYVNQYNYPVEPPCAKNAVYTEIPIELDPHAFLGDSAKRIRVDSDSKDAKSVPSENGRIRVSMSPQNEINFTPENPAVMEKIRKRGVCNSVEGCLYSGSPKSVKRVRESEETKVYAQLLIDLHKSSKSAPMLKAGPSIAFKLPTMEPNFNDVRPVTSISSSS
binds: all assays above
